Results published in the supplement of paper PMC9233669.
Variants at the background level are over-represented here.

Tests used:
biotinyl-Val-oxazolone = test: self-aminoacylation, catalytic enhancement (BVO) (fold over background); higher = more active; k-Seq, kA / k0A0; sequences stand for … in GGGAAUGGAUCCACAUCUACGAAUUC…UUCACUGCAGACUUGACGAAGCUG
How it was run: (§1)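 Mutagenized RNA pools with a 21-nt variable region (0.43 μM) reacted with each biotinyl-aminoacyl-oxazolone at 2–1250 μM. Reactions ran in 50 μL HEPES/NaCl/KCl/MgCl2/CaCl2 buffer with 5% acetonitrile, pH 6.9–7.0, for 90 minutes at room temperature. Streptavidin-captured RNA was quantified by triplicate qPCR and Illumina sequencing, and per-sequence fraction reacted was fit to a pseudo-first-order model with 1000 bootstraps. Catalytic enhancement is median kA divided by the uncatalyzed rate, the low-activity peak of a bimodal Gaussian fit.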

biotinyl-Ile-oxazolone = test: self-aminoacylation, catalytic enhancement (BIO) (fold over background); higher = more active; k-Seq, kA / k0A0; sequences stand for … in GGGAAUGGAUCCACAUCUACGAAUUC…UUCACUGCAGACUUGACGAAGCUG
How it was run: as §1

biotinyl-Leu-oxazolone = test: self-aminoacylation, catalytic enhancement (BLO) (fold over background); higher = more active; k-Seq, kA / k0A0; sequences stand for … in GGGAAUGGAUCCACAUCUACGAAUUC…UUCACUGCAGACUUGACGAAGCUG
How it was run: as §1

biotinyl-Met-oxazolone = test: self-aminoacylation, catalytic enhancement (BMO) (fold over background); higher = more active; k-Seq, kA / k0A0; sequences stand for … in GGGAAUGGAUCCACAUCUACGAAUUC…UUCACUGCAGACUUGACGAAGCUG
How it was run: as §1

Row | Sequence | self-aminoacylation (biotinyl-Val-oxazolone) | self-aminoacylation (biotinyl-Ile-oxazolone) | self-aminoacylation (biotinyl-Leu-oxazolone) | self-aminoacylation (biotinyl-Met-oxazolone)
1 | AACUCUGCUAAUAGUCGCAAG [Fam3.1 aminoacylation ribozyme variant] | 1.73 | 1.79 | 1.53 | –
2 | AAGAUUGUUAAUAGUCGCAAG [Fam3.1 aminoacylation ribozyme variant] | 1.93 | 1.86 | 1.99 | –
3 | AAGCUUGCUAAUAGUCGCAAU [Fam3.1 aminoacylation ribozyme variant] | 1.95 | – | 1.89 | –
4 | AAGCUUGCUAAUAGUCGCAGG [Fam3.1 aminoacylation ribozyme variant] | 1.77 | 1.89 | – | 1.87
5 | AAGUUAGCCAAUAGUCGCAAG [Fam3.1 aminoacylation ribozyme variant] | 1.77 | – | – | –
6 | AAGUUCGCUAAUAGUCGCAAA [Fam3.1 aminoacylation ribozyme variant] | 1.73 | – | – | –
7 | AAGUUCGCUAAUAGUCGCAAU [Fam3.1 aminoacylation ribozyme variant] | – | 1.97 | 2 | –
8 | AAGUUUGAUAAUAGUAGCAAG [Fam3.1 aminoacylation ribozyme variant] | 0.691 | 0.724 | – | –
9 | AAGUUUGCUAAUAGUCGGAAG [Fam3.1 aminoacylation ribozyme variant] | 1.03 | 1.13 | – | –
10 | AAGUUUGCUAAUAUUCGCGAG [Fam3.1 aminoacylation ribozyme variant] | 1.84 | – | 1.91 | –
11 | AAUACCCUCGUCAUCGAGUGA [Fam2.1 aminoacylation ribozyme variant] | 1.84 | – | – | –
12 | AAUCACCUAGGUCAUCGGGCG [Fam2.2 aminoacylation ribozyme variant] | 2.77 | 3.35 | – | –
13 | AAUUUUGCUAAUAGUCGCAUG [Fam3.1 aminoacylation ribozyme variant] | 1.67 | 1.95 | 1.71 | –
14 | AGGUUUGCUAAAAGUCGCAAG [Fam3.1 aminoacylation ribozyme variant] | 1.47 | 1.81 | 1.49 | –
15 | AGUACCCUGGUCAUCGUGUGA [Fam2.1 aminoacylation ribozyme variant] | – | 1.94 | – | –
16 | AUAACCCUUGUCAUCGAGUGA [Fam2.1 aminoacylation ribozyme variant] | 3.13 | 3.29 | – | –
17 | AUCCACCUAGGACAUCGGGUG [Fam2.2 aminoacylation ribozyme variant] | 3.38 | 3.12 | – | –
18 | AUGCACCUAGGGCAUCGGGUG [Fam2.2 aminoacylation ribozyme variant] | 3.46 | 2.89 | – | 3.04
19 | AUUAACCUGGUCAUCGAGUGU [Fam2.1 aminoacylation ribozyme variant] | 2.61 | 2.33 | – | –
20 | AUUACACUCGUCAUCGAGUGA [Fam2.1 aminoacylation ribozyme variant] | 1.91 | – | – | –

Row | Sequence | self-aminoacylation (biotinyl-Val-oxazolone) | self-aminoacylation (biotinyl-Ile-oxazolone) | self-aminoacylation (biotinyl-Leu-oxazolone) | self-aminoacylation (biotinyl-Met-oxazolone)
21 | AUUACACUGGUCAUAGAGUGA [Fam2.1 aminoacylation ribozyme variant] | – | 1.98 | – | –
22 | AUUACCCUGGUCAUUGCGUGA [Fam2.1 aminoacylation ribozyme variant] | 7.31 | 6.44 | – | 15.8
23 | AUUACCCUGGUCGUCCAGUGA [Fam2.1 aminoacylation ribozyme variant] | 1.64 | 1.97 | – | –
24 | AUUACCCUGGUCUGCGAGUGA [Fam2.1 aminoacylation ribozyme variant] | 1.41 | 1.66 | – | –
25 | AUUACCCUGGUUAUCGAGUGU [Fam2.1 aminoacylation ribozyme variant] | 1.79 | 1.44 | – | –
26 | AUUAGCCUGCUCAUCGAGUGA [Fam2.1 aminoacylation ribozyme variant] | 1.96 | 1.96 | – | –
27 | AUUAGCCUGGUCACCGAGUGA [Fam2.1 aminoacylation ribozyme variant] | 4.65 | 4.14 | – | 8.98
28 | AUUCAACUAGGUAAUCGGGUG [Fam2.2 aminoacylation ribozyme variant] | 1.55 | 1.83 | – | –
29 | AUUCACCUAGCUUAUCGGGUG [Fam2.2 aminoacylation ribozyme variant] | 1.91 | 1.73 | 1.84 | –
30 | AUUCACCUAGGUCAUCGCGUC [Fam2.2 aminoacylation ribozyme variant] | – | 1.61 | 1.98 | –
31 | AUUCACCUAGUUCAUAGGGUG [Fam2.2 aminoacylation ribozyme variant] | 1.78 | 1.95 | – | –
32 | AUUCACCUUGGUCAUCGGGGG [Fam2.2 aminoacylation ribozyme variant] | – | 1.93 | – | –
33 | AUUCACUUAGGUCCUCGGGUG [Fam2.2 aminoacylation ribozyme variant] | 2.96 | 3.12 | – | 4.58
34 | AUUCAGCUAGGUCAUCUGGUG [Fam2.2 aminoacylation ribozyme variant] | 1.67 | 1.92 | – | –
35 | AUUCCCCUGGCCAUCGAGUGA [Fam2.1 aminoacylation ribozyme variant] | 4.87 | 3.34 | – | –
36 | AUUCGCCUAGGUAAUCGGGUG [Fam2.2 aminoacylation ribozyme variant] | 2.43 | 2.02 | – | –
37 | AUUCUCCUCGGUCAUCGGGUG [Fam2.2 aminoacylation ribozyme variant] | – | 8.05 | – | –
38 | AUUGCCCUGGUCAUCGAGUGA [Fam2.1 aminoacylation ribozyme variant] | 23.7 | 20.6 | – | 53.1
39 | AUUUACCCAGGUCAUCGGGUG [Fam2.2 aminoacylation ribozyme variant] | 3.55 | 3.28 | – | –
40 | CCACACUCCAAGCAAUCGCUC [Fam1B.1 aminoacylation ribozyme variant] | 2.56 | 1.92 | – | –

Row | Sequence | self-aminoacylation (biotinyl-Val-oxazolone) | self-aminoacylation (biotinyl-Ile-oxazolone) | self-aminoacylation (biotinyl-Leu-oxazolone) | self-aminoacylation (biotinyl-Met-oxazolone)
41 | CCACACUUCAACCAAUCGUUC [Fam1B.1 aminoacylation ribozyme variant] | 0.636 | 0.674 | – | 0.634
42 | CCACACUUCAAGCAAUGGGUG [Fam1B.1 aminoacylation ribozyme variant] | – | 1.74 | – | –
43 | CCACACUUCAAGCAAUUGGUG [Fam1B.1 aminoacylation ribozyme variant] | 1.96 | – | – | –
44 | CCACACUUCACGCAAUCGGCC [Fam1B.1 aminoacylation ribozyme variant] | – | – | 1.88 | –
45 | CCACUUCAAUCAAUCGGUCUG [Fam1A.1 aminoacylation ribozyme variant] | 1.56 | 1.53 | – | 1.54
46 | CCAGGCUUCAAGCAAUCGGUC [Fam1B.1 aminoacylation ribozyme variant] | 1.47 | 1.24 | – | 1.45
47 | CCAUUUCAAACAAUCGGUCUG [Fam1A.1 aminoacylation ribozyme variant] | 1.04 | 1.03 | – | –
48 | CCCCACUUCAACCAAUCGGUC [Fam1B.1 aminoacylation ribozyme variant] | 1.8 | – | – | 1.91
49 | CCCCACUUCAAGCAAUCGGUA [Fam1B.1 aminoacylation ribozyme variant] | 1.83 | 1.82 | – | 1.9
50 | CCCCACUUCAAGCAAUCGUUC [Fam1B.1 aminoacylation ribozyme variant] | 0.849 | 0.898 | – | –
51 | CGACACUUCAAGCAAUUGGUC [Fam1B.1 aminoacylation ribozyme variant] | 0.718 | 0.908 | – | 0.864
52 | CUACUGCAAACAAUCGGUCUU [Fam1A.1 aminoacylation ribozyme variant] | 0.836 | 0.974 | – | –
53 | CUACUUCAAACCAUCGGCCUG [Fam1A.1 aminoacylation ribozyme variant] | 1.94 | 1.82 | – | –
54 | CUACUUCAACCAAUAGGUCUG [Fam1A.1 aminoacylation ribozyme variant] | 0.777 | 0.947 | – | –
55 | CUACUUCGAACAAUCGGUCCG [Fam1A.1 aminoacylation ribozyme variant] | 0.738 | 0.879 | – | –
56 | CUGCUUCAAACAAUCGGCCUG [Fam1A.1 aminoacylation ribozyme variant] | 3.35 | 3.07 | – | –
57 | CUUACCCUGCUCAUCGAGUGA [Fam2.1 aminoacylation ribozyme variant] | 1.76 | 1.64 | – | –
58 | GCACACUUCGAGCAAUCGGUC [Fam1B.1 aminoacylation ribozyme variant] | 1.81 | 1.87 | – | 1.9
